## Library screen at single concentrations

The chains behind the UniProt entries cited, without tags or fusion partners.
UniProt P9WPC5, whole entry: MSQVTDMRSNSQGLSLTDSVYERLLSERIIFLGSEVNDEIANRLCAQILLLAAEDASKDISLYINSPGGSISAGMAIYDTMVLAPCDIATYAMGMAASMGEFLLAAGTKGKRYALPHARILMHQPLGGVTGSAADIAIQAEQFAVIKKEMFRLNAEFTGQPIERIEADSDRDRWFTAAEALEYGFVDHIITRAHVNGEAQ
UniProt P9WPC3, whole entry partner: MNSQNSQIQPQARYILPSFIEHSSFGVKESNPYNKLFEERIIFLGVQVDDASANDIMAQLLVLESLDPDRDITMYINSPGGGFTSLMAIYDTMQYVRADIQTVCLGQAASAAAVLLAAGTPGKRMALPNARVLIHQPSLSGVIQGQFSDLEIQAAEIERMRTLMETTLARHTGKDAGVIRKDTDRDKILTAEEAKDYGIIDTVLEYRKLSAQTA
UniProt P9WNZ1, whole entry: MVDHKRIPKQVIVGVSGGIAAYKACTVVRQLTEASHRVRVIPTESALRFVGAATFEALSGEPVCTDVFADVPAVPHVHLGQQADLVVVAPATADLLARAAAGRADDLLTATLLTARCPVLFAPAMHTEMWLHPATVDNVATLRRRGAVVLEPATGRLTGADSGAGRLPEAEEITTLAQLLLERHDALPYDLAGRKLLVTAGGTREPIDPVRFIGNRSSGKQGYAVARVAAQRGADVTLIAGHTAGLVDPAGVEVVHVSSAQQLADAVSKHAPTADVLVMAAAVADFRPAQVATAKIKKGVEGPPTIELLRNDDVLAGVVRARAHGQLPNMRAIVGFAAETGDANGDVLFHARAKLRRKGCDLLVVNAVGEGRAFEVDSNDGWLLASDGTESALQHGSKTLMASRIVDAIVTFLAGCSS

Measurements from “University of Dundee, Small-Polar-MMV Screening Library” (2021), ChEMBL document CHEMBL3988442.

A: 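Assay of Toxoplasma gondii numbers, read through their beta-galactosidase reporter with a colour substrate. Concentration: 10 µM. The record gives no direction; the compounds picked for IC50 retests had high values, so higher reads as fewer parasites. Size under these conditions: about 67,000 compounds, about 260 of them at 50% or above in at least one test.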
B: 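Protease assay of ClpP1P2, read by the AMC dye that it sets free. Target: ClpP1P2, Mycobacterium tuberculosis (UniProt P9WPC5 and UniProt P9WPC3). Compounds at 50 µM. Higher reads as stronger inhibition, judged from the few compounds that gave an IC50. Most other retested compounds had strongly negative values. Size under these conditions: about 69,000 compounds, about 10 of them at 50% or above in at least one test.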
C: 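Whole-parasite assay of Trypanosoma brucei over 72 hours; the read-out is not stated. Compounds at 30 µM. Direction is inferred from retests: higher values go with stronger inhibition. Values scatter widely below zero; nearly all retest evidence comes from the higher of the two concentrations used. About 64,000 compounds were tested under these conditions; 1.5% (about 940) showed 50% or more at least once.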
D: 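Coenzyme A biosynthesis protein CoaBC, Mycobacterium tuberculosis (UniProt P9WNZ1). Enzyme assay of CoaBC with a phosphate dye (Biomol Green) read at 650 nm. Tested at 30 µM. Higher reads as stronger inhibition, judged from the few compounds that gave an IC50. Most strong results did not repeat in a second test. Size under these conditions: about 67,000 compounds, about 40 of them at 50% or above in at least one test.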

Values are the deposited “Percent Effect”, in %. The record does not define 0% and 100%; most values in the screen are far below 50% and negative numbers occur (in some assays of this library far below -100). The compounds are a random part of those screened. Two or more numbers in one place are separate tests of the same structure; such repeats can differ widely. A dash means the value is not listed here; it may have been measured.

| # | structure | A | B | C | D |
|---|---|---|---|---|---|
| 1 | `Cc1nnc(NCC2(c3ccc(Cl)cc3Cl)CCOCC2)c(C#N)c1C` | -14.43 | -15.39 | -4.533 | 10.87 |
| 2 | `COC(=O)CN(C(=O)c1ccc(-n2ccnc2)cc1)C1CC1` | -5.175 | -1.208 | 5.622 | 4.439 |
| 3 | `CSCCC1CC(=O)Nc2cc(O)c(C)cc21` (centres undefined) | 4.435 | 5.469 | -26.3 | 8.78 |
| 4 | `CC(=O)Nc1cc(-c2cccc(F)c2F)n[nH]1` | 13.79 | 3.562 | 3.341 | 8.754 |
| 5 | `CCN1CCCN(S(=O)(=O)c2cc3ccccc3o2)CC1` | 2.363 | -15.14 | -2.663 | -20.89 |
| 6 | `CN(Cc1cccc2cccnc12)C1CCS(=O)(=O)C1` (centres undefined) | - | -2.625 | - | 5.128 |
| 7 | `Cc1noc(C)c1CN(C)C(=O)C1CCCc2ccccc21` (centres undefined) | 13.03 | 5.764 | -25.84 | 6.59 |
| 8 | `Cc1cc(C(=O)N2CCC3(C2)CN(c2cccnc2)C(=O)CN3C)[nH]n1.O=C(O)C(F)(F)F.O=C(O)C(F)(F)F` (centres undefined) | 0.09997 | - | -8.245 | - |
| 9 | `COc1cccc(CN(C)CC2=Nc3ccccc3S(=O)(=O)N2)c1` | 6.932 | -1.885 | 5.399 | -3.891 |
| 10 | `CCCOC(C)Cn1ccc2[nH]c(=O)c(C#N)cc2c1=O` (centres undefined) | 1.21 | -254 | -39.03 | 14.61 |
| 11 | `NCCc1n[nH]c(=O)n1-c1cccc2ccccc12` | 9.29 | 3.688 | -9.988 | -4.978 |
| 12 | `CCc1ncc(C(=O)N(CCOC)Cc2nccs2)cn1` | -1.902 | 2.227 | -19.67 | -0.6173 |
| 13 | `CCC1(C)Cc2ccccc2-c2nc(NCCO)nc(O)c21` (centres undefined) | 10.44 | -44.54 | -56.15 | 3.038 |
| 14 | `CN(C(=O)CN1CCC(c2cc3ccccc3[nH]2)CC1)C1CC1` | 6.433 | -0.757 | -34.06 | 4.147 |
| 15 | `CCOC(=O)C1CCN(c2cc(C(=O)N3CCOCC3)nc(C)n2)CC1` | 6.821 | 3.582 | -35.94 | 9.364 |
| 16 | `O=C(NCC(=O)N1CCc2ccccc2C1)c1ccoc1` | 1.669 | 15.2 | -8.641 | 3.426 |
| 17 | `O=C1COc2cc(C(=O)NCc3ccc(Cl)s3)ccc2N1` | 4.223 | 2.821 | -2.116 | -5.804 |
| 18 | `COc1ccccc1OCCCc1cc(C)nc(N)n1` | -0.7493 | 0.09427 | 9.724 | -6.379 |
| 19 | `CCOc1ccccc1NC(=O)CN(C)Cc1ccccc1Cl` | -0.5634 | -0.3828 | 104.4 | -13.87 |
| 20 | `COCc1ccc(CNC(=O)C2=NN(c3ccccc3)C(=O)CN2)cc1` | 2.818 | -0.7052 | -2.598 | -3.524 |
| 21 | `Cc1ccc(-c2nc(CNC(C)CCO)[nH]c2-c2ccccn2)cc1` (centres undefined) | -24.39 | -4.588 | -54.5 | -16.04 |
| 22 | `CC(C)n1cc(CN(Cc2ccc(F)cc2)CC2CCCO2)cn1` (centres undefined) | 12.78 | -14.55 | -53.23 | 10.62 |
| 23 | `CNC(=O)c1ccc(=O)n(Cc2csc(C(C)(C)C)n2)c1` | 3.812 | 7.933 | 13.33 | - |
| 24 | `CCC(=O)N1CCCCC1c1nc(O)c2c(n1)CN(S(=O)(=O)CC)CC2` (centres undefined) | 9.008 | 1.172 | 2.05 | 22.25 and 12.89 |
| 25 | `CCCN(Cc1ccccc1)Cn1nc(C)c2c(C)onc2c1=O` | 7.984 | 0.9934 | 14.7 | 1.068 |
| 26 | `Cc1ccc(-c2cc(C3CCNCC3)nc(C)n2)cc1` | - | -13.39 | - | 1.84 |
| 27 | `CCS(=O)(=O)N1CC[C@@H]2[C@H](CC1)N(Cc1cccnc1)CCS2(=O)=O` | - | 6.343 | - | -2.469 |
| 28 | `OCC1(Cc2ccc(F)cc2F)CCCN(Cc2ccncc2)C1` (centres undefined) | -10.2 | -32.8 | 3.264 | -0.9901 |
| 29 | `COC(=O)c1ccc(N2CCN(Cc3csc(C)n3)CC2)nn1` | 0.268 | 1.183 | -33.01 | -1.984 |
| 30 | `CCOC(=O)N1CCN(C(=O)CCn2cccc2)CC1` | 0.04638 | -12.2 | -15.28 | -1.519 |
| 31 | `CCN(CC)C(=O)CNS(=O)(=O)c1cc(Br)ccc1F` | 0.5036 | -4.198 | -6.348 | -1.006 |
| 32 | `CN(C)CCNC(=O)c1cc(-c2cnc(N3CCOCC3)nc2)cn1C` | - | -1.4 | - | 3.5 |
| 33 | `Cc1nc(C)n(CCNC2CCN(c3ncnc4c(C)csc34)CC2)n1` | -4.38 | -6.064 | -9.643 | -3.257 |
| 34 | `CN(C)C(=O)N1CCC2(CC1)COCCN(c1ncccn1)C2` | 8.318 | -10.36 | -80.94 | -13.09 |
| 35 | `O=C(c1cnccn1)N1C[C@@H]2CC[C@H](C1)N(C(=O)Cc1ccsc1)C2` | - | -6.832 | - | -1.818 |
| 36 | `CSCC(=O)N(C)Cc1ccc(N(C)C)cc1` | -1.25 | 0.7499 | 5.399 | 5.058 |
| 37 | `N#Cc1cccnc1N1CCN(C(=O)CCC(=O)c2cccs2)CC1` | 9.014 | 8.596 | -48.96 | -3.782 |

The first 3 entries again:

- Cc1nnc(NCC2(c3ccc(Cl)cc3Cl)CCOCC2)c(C#N)c1C | A: -14.43%; B: -15.39%; C: -4.533%; D: 10.87%
- COC(=O)CN(C(=O)c1ccc(-n2ccnc2)cc1)C1CC1 | A: -5.175%; B: -1.208%; C: 5.622%; D: 4.439%
- CSCCC1CC(=O)Nc2cc(O)c(C)cc21 (centres undefined) | A: 4.435%; B: 5.469%; C: -26.3%; D: 8.78%